{"source": "PubChem BioAssay AID504764 (Drosophila RNAi Screening Center, 2011)", "aim": "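Knock-downs that raise or lower a Notch target reporter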 (primary screen)", "cells": "Drosophila Kc167 cells", "reagents": "long dsRNA against Drosophila genes", "time to read-out": "about 5 days (4 days dsRNA, then 24 h after transfection)", "challenge": "transfection of constitutively active membrane-tethered Notch lacking the extracellular domain, read 24 h later", "read-out": "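Light from a Notch-responsive E(spl)m3 luciferase reporter under active Notch, with control-promoter and no-Notch reporter wells to normalise; raw counts from paired wells a and b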", "direction": "induced reporter light, run 1, well a and induced reporter light, run 1, well b: higher = more light from the Notch target reporter with active Notch; control promoter light, run 1, well a and control promoter light, run 1, well b: higher = more light from the viral control promoter (cell number, transfection, viability); uninduced reporter light, run 1, well a: higher = more light from the Notch target reporter without active Notch", "active means": "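Hit if the duplicate-averaged log2 ratio of induced to control-promoter light gives a plate-wise z beyond ±2, or induced to uninduced beyond ±1.8; weak-control or discordant-duplicate wells dropped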", "calls": "active = modifier hit (raised or lowered Notch signal); inactive = not a hit", "note": "The deposit covers about 22,000 reagents; this is a random part of those with a known target gene and a result. In the full data, 403 (1.9%) were called active. 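Unnormalised raw counts per well; ratio z-scores behind the hit calls and whether each hit raises or lowers signal are not deposited.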 A number with no mark means an inactive call. Reagents against one gene are numbered here. No sequences are given here. Not stated in the record: the amount of reagent."}
{"gene":"mnd","reagent no.":1,"induced reporter light, run 1, well a":1.30e5,"induced reporter light, run 1, well b":1.43e5,"control promoter light, run 1, well a":1.86e5,"control promoter light, run 1, well b":2.05e5,"uninduced reporter light, run 1, well a":8410}
{"gene":"CG14932","reagent no.":1,"induced reporter light, run 1, well a":1.25e5,"induced reporter light, run 1, well b":1.62e5,"control promoter light, run 1, well a":78465,"control promoter light, run 1, well b":1.03e5,"uninduced reporter light, run 1, well a":18670}
{"gene":"CG34109","reagent no.":1,"induced reporter light, run 1, well a":88675,"induced reporter light, run 1, well b":1.29e5,"control promoter light, run 1, well a":67835,"control promoter light, run 1, well b":85425,"uninduced reporter light, run 1, well a":17325}
{"gene":"CG34109","reagent no.":2,"induced reporter light, run 1, well a":1.13e5,"induced reporter light, run 1, well b":1.26e5,"control promoter light, run 1, well a":60260,"control promoter light, run 1, well b":91425,"uninduced reporter light, run 1, well a":15885}
{"gene":"CG34109","reagent no.":3,"induced reporter light, run 1, well a":76670,"induced reporter light, run 1, well b":1.03e5,"control promoter light, run 1, well a":52415,"control promoter light, run 1, well b":68505,"uninduced reporter light, run 1, well a":13790}
{"gene":"CG7432","reagent no.":1,"induced reporter light, run 1, well a":2.12e5,"induced reporter light, run 1, well b":1.92e5,"control promoter light, run 1, well a":2.60e5,"control promoter light, run 1, well b":2.30e5,"uninduced reporter light, run 1, well a":17920}
{"gene":"CG2926","reagent no.":1,"induced reporter light, run 1, well a":76990,"induced reporter light, run 1, well b":84450,"control promoter light, run 1, well a":60710,"control promoter light, run 1, well b":50395,"uninduced reporter light, run 1, well a":9680}
{"gene":"CG11619","reagent no.":1,"induced reporter light, run 1, well a":51965,"induced reporter light, run 1, well b":64125,"control promoter light, run 1, well a":61725,"control promoter light, run 1, well b":46365,"uninduced reporter light, run 1, well a":2475}
{"gene":"CG14131","reagent no.":1,"induced reporter light, run 1, well a":1.21e5,"induced reporter light, run 1, well b":1.12e5,"control promoter light, run 1, well a":2.11e5,"control promoter light, run 1, well b":1.83e5,"uninduced reporter light, run 1, well a":5675}
{"gene":"CG13674","reagent no.":1,"induced reporter light, run 1, well a":1.14e5,"induced reporter light, run 1, well b":1.19e5,"control promoter light, run 1, well a":1.30e5,"control promoter light, run 1, well b":99740,"uninduced reporter light, run 1, well a":6890}
{"gene":"Roe1","reagent no.":1,"induced reporter light, run 1, well a":1.91e5,"induced reporter light, run 1, well b":1.71e5,"control promoter light, run 1, well a":1.90e5,"control promoter light, run 1, well b":1.49e5,"uninduced reporter light, run 1, well a":14020}
{"gene":"CG12239","reagent no.":1,"induced reporter light, run 1, well a":1.40e5,"induced reporter light, run 1, well b":1.26e5,"control promoter light, run 1, well a":1.69e5,"control promoter light, run 1, well b":1.55e5,"uninduced reporter light, run 1, well a":9810}

Ordered by “control promoter light, run 1, well a” (high to low): some entries from above
{"gene":"CG14131","reagent no.":1,"induced reporter light, run 1, well a":1.21e5,"induced reporter light, run 1, well b":1.12e5,"control promoter light, run 1, well a":2.11e5,"control promoter light, run 1, well b":1.83e5,"uninduced reporter light, run 1, well a":5675}
{"gene":"CG11619","reagent no.":1,"induced reporter light, run 1, well a":51965,"induced reporter light, run 1, well b":64125,"control promoter light, run 1, well a":61725,"control promoter light, run 1, well b":46365,"uninduced reporter light, run 1, well a":2475}
